# The supplement of paper PMC10689618
# Where a name gives a salt, the structure may show the parent alone. This is one part of the list. Single values are uncertain, as repeats are few or missing.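 Primary human fetal astrocytes engulfed labelled rat cortical synaptosomes, measured as a red/green ratio corrected for calcein live-cell signal and scaled to the plate median. Toxicity meant calcein falling over 30%; decreased phagocytosis meant below 70% of median above 5 µM.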
# System: Human fetal astrocytes
# Test: loss of total cells relative to no-compound high-control median (toxicity); higher = more toxic (fewer cells)
# Conditions: 5.56 µM; 24 h
row,SMILES,loss of total cells [%]
1,CC(C)C[C@@H]1NC(=O)[C@H](CCCN)NC(=O)[C@H](C(C)C)NC(=O)[C@H](Cc2ccc(O)cc2)N[C@@H](CCC(=O)O)C(=O)N[C@@H](CC(N)=O)C(=O)[C@@H](Cc2ccccc2)NC(=O)[C@H](Cc2ccccc2)NC(=O)[C@@H]2CCCN2C(=O)[C@@H](Cc2ccccc2)NC1=O,40.4
2,C[N+](C)(C)CC(O)CC(=O)[O-] (configuration not stated),-16.7
3,CC(=O)OCC(=O)[C@@]1(O)CC[C@H]2[C@@H]3CCC4=CC(=O)CC[C@]4(C)[C@H]3[C@@H](O)C[C@@]21C,-25.1
4,CCCN(CCC)S(=O)(=O)c1ccc(C(=O)O)cc1,-32.1
5,CC(N)C12CC3CC(CC(C3)C1)C2 (configuration not stated),0
6,CON,-3.7
7,Cn1c2ncnc-2c(O)n(C)c1=O,-6.5
8,CC(COc1ccccc1)NC(C)C(O)c1ccc(O)cc1 (configuration not stated),-12.5
9,CN(C)CCCO[C@@H]1[C@H]2OC(C)(C)O[C@H]2O[C@@H]1[C@H](O)CO,-11.2
10,CS(=O)(=O)c1ccc([C@@H](O)[C@@H](CO)NC(=O)C(Cl)Cl)cc1,-8.7
11,C/C=N/N(C)C=O,21.7
12,C1CNCCN1,6.3
13,NNC(=O)c1ccncc1.Nc1ccc(C(=O)O)c(O)c1,13.8
14,CC(C)NCC(O)c1cc(O)cc(O)c1 (configuration not stated),8.7
15,O=C(/C=C/c1ccccc1)c1ccc(O[C@@H]2O[C@H](CO)[C@@H](O)[C@H](O)[C@H]2O)cc1O,-3.8
16,CCN(CC)CCCC(C)Nc1c2ccc(Cl)cc2nc2ccc(OC)cc12 (configuration not stated) [Quinacrine dihydrochloride],-14.6
17,CCN1CCCC1CNC(=O)c1cc(S(N)(=O)=O)ccc1OC (configuration not stated),13.5

# Given bar-delimited: part of the list above.
row | SMILES | loss of total cells [%]
4 | CCCN(CCC)S(=O)(=O)c1ccc(C(=O)O)cc1 | -32.1
9 | CN(C)CCCO[C@@H]1[C@H]2OC(C)(C)O[C@H]2O[C@@H]1[C@H](O)CO | -11.2
